These results got no clear call from the source, so the numbers are uncertain. Rule for the calls: active = hit-call score of the fitted dose curve at least 0.9, where 1 is the maximum; inconclusive = response in the unintended direction; inactive = score below 0.9. Potencies beside an inconclusive call are fits to weak or partial responses and may not hold up.
Molecular target: human Retinoid X Receptor beta (RXRb), RXRB (gene 6257) (UniProt P28702)
Assay: ATG_hRXRb_EcoTox2: Attagene TRANS-FACTORIAL EcoTox-2 HepG2 Assay for human Retinoid X Receptor beta (RXRb)
Protocol: ATG_EcoTox2 is a cell-based, multiplexed assay created by modifying the existing Attagene TRANS-FACTORIAL system to include a panel of nuclear receptors from some or all the following species: human (Homo sapiens), african clawed frog (Xenopus laevis), rainbow trout (Oncorhynchus mykiss), japanese medaka (Oryzias latipes), and zebrafish (Danio rerio). The ECOTOX2-FACTORIAL format uses HepG2, a human liver cell line, with measurements taken at 24 hours after chemical dosing in a 24-well plate. ATG_hRXRb_EcoTox2 is one of 29 assay components calculated in the ATG_EcoTox2 assay. It is designed to make measurements of mRNA induction, a form of inducible reporter, as detected with fluorescence intensity signals by Reverse transcription polymerase chain reaction (RT-PCR) and Capillary electrophoresis technology.The assay endpoint ATG_hRXRb_EcoTox2 was analyzed in the positive analysis fitting direction relative to DMSO as the negative control and baseline of activity. Using a type of inducible reporter, measures of mRNA for gain-of-signal activity can be used to understand the reporter gene at the transcription factor-level as they relate to the gene RXRb. Furthermore, this assay endpoint can be referred to as a primary readout, because this assay has produced multiple assay endpoints where this one serves a reporter gene function. […]

By UniProt entry, the sequences of proteins in these tests, tags left out. Where a name states a change or a piece, a line headed by the entry shows the natural chain unless it says otherwise.
UniProt P28702: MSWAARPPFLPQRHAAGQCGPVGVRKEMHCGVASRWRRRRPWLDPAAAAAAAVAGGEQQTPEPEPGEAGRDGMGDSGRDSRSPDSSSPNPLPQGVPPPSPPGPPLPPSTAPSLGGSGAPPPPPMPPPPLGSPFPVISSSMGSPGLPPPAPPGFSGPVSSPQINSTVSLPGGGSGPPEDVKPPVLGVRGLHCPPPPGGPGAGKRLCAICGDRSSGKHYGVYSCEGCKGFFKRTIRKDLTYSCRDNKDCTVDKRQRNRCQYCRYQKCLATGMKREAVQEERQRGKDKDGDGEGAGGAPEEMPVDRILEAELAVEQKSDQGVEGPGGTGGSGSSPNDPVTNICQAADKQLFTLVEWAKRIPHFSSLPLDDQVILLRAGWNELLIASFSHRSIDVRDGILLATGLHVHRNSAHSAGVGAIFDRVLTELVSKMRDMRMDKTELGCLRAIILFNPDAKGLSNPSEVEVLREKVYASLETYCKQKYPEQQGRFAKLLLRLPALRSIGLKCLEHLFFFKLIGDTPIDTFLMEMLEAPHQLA

| SMILES | AC50 |
| --- | --- |
| Cc1nc(-c2ccc(C(F)(F)F)cc2)sc1C(=O)NCc1ccc(OC(C)(C)C(=O)O)cc1 | inconclusive: 5.24 µM |
| Cc1c(C)c2c(c(C)c1O)CCC(C)(COc1ccc(CC3SC(=O)NC3=O)cc1)O2 (configuration not stated) | inconclusive: 16.6 µM |

— PubChem BioAssay AID2284354 (EPA ToxCast)
